Consider one molecule from publication PMC8545988.

In the experiment the target is T1, BD-SPY (SPINDLY in pGBKT7) (Arabidopsis thaliana) (UniProt Q96301).
T1 sequence: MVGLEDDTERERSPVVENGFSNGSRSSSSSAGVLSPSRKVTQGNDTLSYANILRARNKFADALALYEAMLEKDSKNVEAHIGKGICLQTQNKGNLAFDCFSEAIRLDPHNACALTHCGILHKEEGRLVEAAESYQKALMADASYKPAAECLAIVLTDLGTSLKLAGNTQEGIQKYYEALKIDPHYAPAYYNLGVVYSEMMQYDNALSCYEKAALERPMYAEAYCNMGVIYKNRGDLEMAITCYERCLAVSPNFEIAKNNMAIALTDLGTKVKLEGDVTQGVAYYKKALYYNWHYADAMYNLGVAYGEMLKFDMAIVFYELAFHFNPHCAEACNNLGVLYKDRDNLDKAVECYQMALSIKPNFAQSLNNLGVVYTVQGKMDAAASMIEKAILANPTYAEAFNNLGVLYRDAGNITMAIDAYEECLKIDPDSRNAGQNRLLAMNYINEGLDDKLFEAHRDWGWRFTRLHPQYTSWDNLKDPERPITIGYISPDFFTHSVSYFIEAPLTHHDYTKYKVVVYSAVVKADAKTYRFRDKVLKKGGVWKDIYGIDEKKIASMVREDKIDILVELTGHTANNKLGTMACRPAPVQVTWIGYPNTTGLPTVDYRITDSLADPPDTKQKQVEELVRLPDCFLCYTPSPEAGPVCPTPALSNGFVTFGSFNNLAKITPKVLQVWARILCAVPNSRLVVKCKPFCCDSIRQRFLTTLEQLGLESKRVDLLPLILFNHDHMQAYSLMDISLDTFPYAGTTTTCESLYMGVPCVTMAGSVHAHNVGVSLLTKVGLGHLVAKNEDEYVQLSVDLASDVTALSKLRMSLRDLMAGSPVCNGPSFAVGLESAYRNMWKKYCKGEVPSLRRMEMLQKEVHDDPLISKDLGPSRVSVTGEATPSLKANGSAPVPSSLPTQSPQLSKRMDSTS
The experiment is described as follows: two-hybrid; one-to-one test: pGBKT7 baits with pGADT7-CPN20; growth on SD/-Trp/-Leu/-His/AbA/X-alpha-Gal or SD/-Trp/-Leu/-His/-Ade/AbA/X-alpha-Gal; pictures after 4 days on SD-3/X/A.

Results are given in words; binding and its absence hold for the method and conditions named. Some entries that bind do so weakly or less than the wild type. Sequences can lack the tags named with a protein.

B1: AD-CPN20 (full-length CPN20 in pGADT7) (protein, UniProt O65282 1-253)
chain: MAATQLTASPVTMSARSLASLDGLRASSVKFSSLKPGTLRQSQFRRLVVKAASVVAPKYTSIKPLGDRVLVKIKEAEEKTLGGILLPSTAQSKPQGGEVVAVGEGRTIGKNKIDITVPTGAQIIYSKYAGTEVEFNDVKHLILKEDDIVGILETEDIKDLKPLNDRVFIKVAEAEEKTAGGLLLTETTKEKPSIGTVIAVGPGSLDEEGKITPLPVSTGSTVLYSKYAGNDFKGKDGSNYIALRASDVMAILS
Consider B1, for which the binding entry is listed as “binds”.
